These are yes or no findings as the source states them, for the method shown.
Experiments:
topoisomerase II [1] = test: SPR (BIAcore), channel derivatized with T1BP2, 8.0 nM topoisomerase II injected
tubulin [2] = test: SPR (BIAcore), analyte injected over T1BP2-derivatized channel
topoisomerase II [3] = test: as above
tubulin [4] = test: SPR (BIAcore), channel derivatized with T1BP2, 8.0 nM tubulin injected

Measured: binding

B1: T1BP2 (peptide)
peptide: SAYAATVRGPLSSAS
notes: Coupled to a CM5 chip for SPR; also called T1PB2; CPP3
no binding (tested: 8.0 nM): topoisomerase II [1] | tubulin [2] | topoisomerase II [3] | tubulin [4]

From patent publication US20100137221A1, “PEPTIDES THAT INTERACT WITH TOPOISOMERASE I AND METHODS THEREOF” (UNIVERSITY UTAH RESEARCH FOUNDATION, priority 2007, published 2010)
